This passage reports binding results from PMC9981700 (2023).

By UniProt entry, the sequences of proteins in these tests, tags left out. Residues count along the entry.
UniProt Q04721, residues 26-2471: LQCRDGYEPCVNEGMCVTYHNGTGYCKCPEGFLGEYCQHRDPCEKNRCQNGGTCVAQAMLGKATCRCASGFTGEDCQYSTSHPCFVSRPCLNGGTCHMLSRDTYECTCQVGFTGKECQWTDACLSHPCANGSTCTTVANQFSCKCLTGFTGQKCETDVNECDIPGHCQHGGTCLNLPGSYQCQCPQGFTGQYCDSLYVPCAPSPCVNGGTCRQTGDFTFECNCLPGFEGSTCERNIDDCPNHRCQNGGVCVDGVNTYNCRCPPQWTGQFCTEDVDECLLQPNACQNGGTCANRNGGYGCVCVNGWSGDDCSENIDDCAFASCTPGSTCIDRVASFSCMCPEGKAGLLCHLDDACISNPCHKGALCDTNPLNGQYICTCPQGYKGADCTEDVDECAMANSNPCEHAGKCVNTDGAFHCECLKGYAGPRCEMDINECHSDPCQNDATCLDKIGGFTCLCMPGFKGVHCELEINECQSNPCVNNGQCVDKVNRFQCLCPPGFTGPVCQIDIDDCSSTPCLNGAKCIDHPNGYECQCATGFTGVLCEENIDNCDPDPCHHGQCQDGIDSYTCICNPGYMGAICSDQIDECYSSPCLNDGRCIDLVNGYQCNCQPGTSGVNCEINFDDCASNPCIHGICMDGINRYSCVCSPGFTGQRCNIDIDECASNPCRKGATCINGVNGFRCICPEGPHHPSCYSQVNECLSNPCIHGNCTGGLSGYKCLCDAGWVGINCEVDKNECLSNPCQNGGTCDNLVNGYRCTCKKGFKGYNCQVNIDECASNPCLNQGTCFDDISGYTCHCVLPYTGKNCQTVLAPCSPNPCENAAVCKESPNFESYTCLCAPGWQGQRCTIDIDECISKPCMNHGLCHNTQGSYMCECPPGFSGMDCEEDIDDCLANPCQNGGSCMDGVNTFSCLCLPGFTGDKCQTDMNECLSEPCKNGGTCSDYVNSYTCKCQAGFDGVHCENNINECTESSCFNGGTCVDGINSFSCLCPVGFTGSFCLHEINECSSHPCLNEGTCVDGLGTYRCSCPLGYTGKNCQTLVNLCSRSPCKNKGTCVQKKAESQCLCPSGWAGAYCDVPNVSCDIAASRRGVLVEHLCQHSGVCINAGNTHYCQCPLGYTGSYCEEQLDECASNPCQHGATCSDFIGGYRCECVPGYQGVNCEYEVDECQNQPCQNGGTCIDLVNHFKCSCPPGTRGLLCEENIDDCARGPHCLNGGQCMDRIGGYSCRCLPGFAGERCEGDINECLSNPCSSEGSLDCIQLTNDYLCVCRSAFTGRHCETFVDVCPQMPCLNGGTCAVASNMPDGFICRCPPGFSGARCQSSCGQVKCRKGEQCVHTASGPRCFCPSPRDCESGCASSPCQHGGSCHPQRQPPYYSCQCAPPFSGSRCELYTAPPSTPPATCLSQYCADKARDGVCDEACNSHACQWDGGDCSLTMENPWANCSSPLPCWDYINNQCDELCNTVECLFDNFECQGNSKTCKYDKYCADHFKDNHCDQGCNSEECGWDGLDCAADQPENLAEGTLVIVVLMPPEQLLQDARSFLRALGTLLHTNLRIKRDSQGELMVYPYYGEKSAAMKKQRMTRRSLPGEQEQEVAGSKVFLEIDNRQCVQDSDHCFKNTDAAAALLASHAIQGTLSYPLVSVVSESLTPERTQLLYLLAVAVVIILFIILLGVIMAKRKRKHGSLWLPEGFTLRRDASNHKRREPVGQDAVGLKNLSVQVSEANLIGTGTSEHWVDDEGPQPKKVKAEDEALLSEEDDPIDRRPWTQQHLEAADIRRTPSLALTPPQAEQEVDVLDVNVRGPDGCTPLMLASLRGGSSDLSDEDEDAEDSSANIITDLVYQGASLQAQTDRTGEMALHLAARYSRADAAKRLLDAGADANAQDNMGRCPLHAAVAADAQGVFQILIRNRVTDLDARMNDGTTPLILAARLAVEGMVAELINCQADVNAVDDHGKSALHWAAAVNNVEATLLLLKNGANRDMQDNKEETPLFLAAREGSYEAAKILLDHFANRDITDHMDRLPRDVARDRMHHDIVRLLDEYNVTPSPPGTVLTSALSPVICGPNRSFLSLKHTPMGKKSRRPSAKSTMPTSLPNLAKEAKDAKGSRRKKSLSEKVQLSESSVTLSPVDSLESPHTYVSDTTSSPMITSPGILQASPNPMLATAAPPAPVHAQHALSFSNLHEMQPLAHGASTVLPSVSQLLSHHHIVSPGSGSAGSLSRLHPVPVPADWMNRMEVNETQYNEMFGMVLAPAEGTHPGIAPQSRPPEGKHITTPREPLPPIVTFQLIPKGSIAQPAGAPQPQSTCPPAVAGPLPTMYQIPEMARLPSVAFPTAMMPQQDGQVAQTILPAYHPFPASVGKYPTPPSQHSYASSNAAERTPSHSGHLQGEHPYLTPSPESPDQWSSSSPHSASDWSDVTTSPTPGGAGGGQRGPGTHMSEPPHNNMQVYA

No constants are given. Whether binding was seen depends on the method and setting. Binding seen in cells or lysates may run through a third protein. Some results given as binding are weak or reduced against the parent protein; the word gives no strength. Sequences can lack the tags named with a protein.

The assay addresses Notch2, endogenous in BMSCs (human (endogenous in human BMSCs)) (UniProt Q04721). Kind of assay: co-IP; lysates of BMSCs transfected with lentivirus encoding 3×Flag-FBLN2; immunoprecipitated with anti-3×Flag antibody, anti-Notch2 antibody or control IgG at 4 °C, rProtein G Sepharose; immunoblotted with anti-Notch2 or anti-3×Flag antibody. In general terms: In western blotting, separated proteins are transferred to a membrane and probed.

B1: Fibulin2 (Ala28–Leu1184), recombinant protein (natural protein)
chain: APRQDCTGVECPPLENCIEEALEPGACCATCVQQGCACEGYQYYDCLQGGFVRGRVPAGQSYFVDFGSTECSCPPGGGKISCQFMLCPELPPNCIEAVVVADSCPQCGQVGCVHAGHKYAAGHTVHLPPCRACHCPDAGGELICYQLPGCHGNFSDAEEGDPERHYEDPYSYDQEVAEVEAATALGGEVQAGAVQAGAGGPPAALGGGSQPLSTIQAPPWPAVLPRPTAAAALGPPAPVQAKARRVTEDSEEEEEEEEEREEMAVTEQLAAGGHRGLDGLPTTAPAGPSLPIQEERAEAGARAEAGARPEENLILDAQATSRSTGPEGVTHAPSLGKAALVPTQAVPGSPRDPVKPSPHNILSTSLPDAAWIPPTREVPRKPQVLPHSHVEEDTDPNSVHSIPRSSPEGSTKDLIETCCAAGQQWAIDNDECLEIPESGTEDNVCRTAQRHCCVSYLQEKSCMAGVLGAKEGETCGAEDNDSCGISLYKQCCDCCGLGLRVRAEGQSCESNPNLGYPCNHVMLSCCEGEEPLIVPEVRRPPEPAAAPRRVSEAEMAGREALSLGTEAELPNSLPGDDQDECLLLPGELCQHLCINTVGSYHCACFPGFSLQDDGRTCRPEGHPPQPEAPQEPALKSEFSQVASNTIPLPLPQPNTCKDNGPCKQVCSTVGGSAICSCFPGYAIMADGVSCEDINECVTDLHTCSRGEHCVNTLGSFHCYKALTCEPGYALKDGECEDVDECAMGTHTCQPGFLCQNTKGSFYCQARQRCMDGFLQDPEGNCVDINECTSLSEPCRPGFSCINTVGSYTCQRNPLICARGYHASDDGTKCVDVNECETGVHRCGEGQVCHNLPGSYRCDCKAGFQRDAFGRGCIDVNECWASPGRLCQHTCENTLGSYRCSCASGFLLAADGKRCEDVNECEAQRCSQECANIYGSYQCYCRQGYQLAEDGHTCTDIDECAQGAGILCTFRCLNVPGSYQCACPEQGYTMTANGRSCKDVDECALGTHNCSEAETCHNIQGSFRCLRFECPPNYVQVSKTKCERTTCHDFLECQNSPARITHYQLNFQTGLLVPAHIFRIGPAPAFTGDTIALNIIKGNEEGYFGTRRLNAYTGVVYLQRAVLEPRDFALDVEMKLWRQGSVTTFLAKMHIFFTTFAL
Take B1: the binding entry is recorded as “binds”.
